Experimental data reported in patent US20050032696.
For some of these results: At least one result comes from cells or an extract, where the contact may be indirect. Negatives hold for the conditions tested. For some of these results: Tags and fusion partners may be left off the protein sequences shown. For some of these results: For at least one entry, the source does not settle the construct or the ends of the probe.

Tests used:
[1] = tested on: T1, hMusTRD1α1 (yeast) (Homo sapiens); test: one hybrid; conditions: protein in cells, only the site is given
T1 sequence (looked up, limits assumed): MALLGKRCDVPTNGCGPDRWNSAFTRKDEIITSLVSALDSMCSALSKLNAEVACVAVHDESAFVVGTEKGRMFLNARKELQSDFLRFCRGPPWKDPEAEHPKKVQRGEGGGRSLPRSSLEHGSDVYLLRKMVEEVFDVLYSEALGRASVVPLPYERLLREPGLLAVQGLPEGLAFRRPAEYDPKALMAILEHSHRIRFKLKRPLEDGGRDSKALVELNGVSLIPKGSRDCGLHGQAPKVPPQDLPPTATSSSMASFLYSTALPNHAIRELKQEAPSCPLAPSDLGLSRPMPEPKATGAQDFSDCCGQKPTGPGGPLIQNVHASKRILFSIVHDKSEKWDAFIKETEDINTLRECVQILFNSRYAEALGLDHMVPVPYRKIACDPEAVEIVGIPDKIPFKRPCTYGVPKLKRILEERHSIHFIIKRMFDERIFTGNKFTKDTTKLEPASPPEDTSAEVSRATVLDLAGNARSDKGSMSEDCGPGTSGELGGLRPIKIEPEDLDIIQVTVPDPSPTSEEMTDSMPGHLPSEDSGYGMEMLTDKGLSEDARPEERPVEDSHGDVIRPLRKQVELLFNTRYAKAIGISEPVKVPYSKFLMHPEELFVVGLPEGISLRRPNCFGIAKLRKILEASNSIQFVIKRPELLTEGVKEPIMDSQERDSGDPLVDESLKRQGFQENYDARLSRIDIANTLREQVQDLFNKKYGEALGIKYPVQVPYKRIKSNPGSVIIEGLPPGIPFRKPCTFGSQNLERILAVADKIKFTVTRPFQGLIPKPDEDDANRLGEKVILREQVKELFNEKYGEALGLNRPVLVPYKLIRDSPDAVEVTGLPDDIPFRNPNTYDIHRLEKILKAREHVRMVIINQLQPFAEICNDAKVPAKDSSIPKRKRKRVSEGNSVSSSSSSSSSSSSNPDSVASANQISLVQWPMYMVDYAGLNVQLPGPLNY

[2] = tested on: T2, hMusTRD1α1 350aa (Homo sapiens); test: EMSA; conditions: RD1 only; protein translated in vitro; protein details: myc/his; label: 32P
T2 sequence (looked up): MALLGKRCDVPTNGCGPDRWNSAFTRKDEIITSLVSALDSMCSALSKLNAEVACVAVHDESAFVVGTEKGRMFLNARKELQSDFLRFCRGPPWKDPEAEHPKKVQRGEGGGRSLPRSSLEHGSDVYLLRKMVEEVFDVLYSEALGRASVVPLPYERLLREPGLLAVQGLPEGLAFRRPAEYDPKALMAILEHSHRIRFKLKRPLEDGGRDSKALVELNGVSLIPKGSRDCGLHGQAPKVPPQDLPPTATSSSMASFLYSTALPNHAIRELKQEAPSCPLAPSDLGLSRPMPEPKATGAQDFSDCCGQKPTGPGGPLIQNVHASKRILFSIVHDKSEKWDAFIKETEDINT

[3] = tested on: T3, hMusTRD1α1 564aa (Homo sapiens); test: EMSA; conditions: protein translated in vitro, protein details: myc/his, label: 32P
T3 sequence (looked up): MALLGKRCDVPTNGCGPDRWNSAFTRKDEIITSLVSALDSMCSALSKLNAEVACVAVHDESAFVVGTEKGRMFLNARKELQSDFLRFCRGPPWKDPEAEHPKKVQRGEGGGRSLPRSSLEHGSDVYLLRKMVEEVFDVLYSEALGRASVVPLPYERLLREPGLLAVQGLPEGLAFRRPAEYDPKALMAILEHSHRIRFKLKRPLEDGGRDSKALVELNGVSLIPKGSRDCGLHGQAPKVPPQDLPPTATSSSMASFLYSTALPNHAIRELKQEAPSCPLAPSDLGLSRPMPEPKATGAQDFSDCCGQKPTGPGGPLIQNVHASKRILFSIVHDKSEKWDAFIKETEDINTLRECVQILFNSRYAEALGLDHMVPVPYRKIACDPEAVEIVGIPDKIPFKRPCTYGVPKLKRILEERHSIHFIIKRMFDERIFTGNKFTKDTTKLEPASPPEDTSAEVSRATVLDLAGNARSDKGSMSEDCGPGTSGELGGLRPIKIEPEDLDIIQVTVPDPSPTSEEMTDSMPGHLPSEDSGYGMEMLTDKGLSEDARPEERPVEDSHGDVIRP

[4] = tested on: T4, hMusTRD1α1 786aa (Homo sapiens); test: EMSA; conditions: protein translated in vitro, protein details: myc/his, label: 32P
T4 sequence (looked up): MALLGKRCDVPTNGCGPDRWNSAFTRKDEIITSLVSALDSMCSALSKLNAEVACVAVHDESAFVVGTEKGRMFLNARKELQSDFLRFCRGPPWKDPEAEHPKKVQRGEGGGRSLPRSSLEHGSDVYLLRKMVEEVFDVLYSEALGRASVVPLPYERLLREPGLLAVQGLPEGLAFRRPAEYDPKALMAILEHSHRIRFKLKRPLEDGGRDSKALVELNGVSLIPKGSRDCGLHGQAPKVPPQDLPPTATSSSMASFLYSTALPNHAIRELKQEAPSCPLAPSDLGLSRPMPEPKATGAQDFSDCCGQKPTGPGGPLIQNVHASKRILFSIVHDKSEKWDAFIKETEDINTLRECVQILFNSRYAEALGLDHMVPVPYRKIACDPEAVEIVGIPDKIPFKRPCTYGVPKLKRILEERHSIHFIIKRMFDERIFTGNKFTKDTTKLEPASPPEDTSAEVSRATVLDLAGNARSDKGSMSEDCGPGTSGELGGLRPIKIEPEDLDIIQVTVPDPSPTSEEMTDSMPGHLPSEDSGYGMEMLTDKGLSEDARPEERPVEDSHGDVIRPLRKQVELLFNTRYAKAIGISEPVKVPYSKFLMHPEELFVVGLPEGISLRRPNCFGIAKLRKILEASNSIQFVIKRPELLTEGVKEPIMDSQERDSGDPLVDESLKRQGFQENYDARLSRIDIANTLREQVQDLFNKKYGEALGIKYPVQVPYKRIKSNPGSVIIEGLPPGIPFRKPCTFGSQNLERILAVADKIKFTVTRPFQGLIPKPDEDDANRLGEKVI

[5] = tested on: T5, hMusTRD1α1 ΔN444 internal deletion of amino acids 100-544 (Homo sapiens); test: EMSA; conditions: protein translated in vitro, protein details: myc/his, label: 32P
T5 sequence (looked up): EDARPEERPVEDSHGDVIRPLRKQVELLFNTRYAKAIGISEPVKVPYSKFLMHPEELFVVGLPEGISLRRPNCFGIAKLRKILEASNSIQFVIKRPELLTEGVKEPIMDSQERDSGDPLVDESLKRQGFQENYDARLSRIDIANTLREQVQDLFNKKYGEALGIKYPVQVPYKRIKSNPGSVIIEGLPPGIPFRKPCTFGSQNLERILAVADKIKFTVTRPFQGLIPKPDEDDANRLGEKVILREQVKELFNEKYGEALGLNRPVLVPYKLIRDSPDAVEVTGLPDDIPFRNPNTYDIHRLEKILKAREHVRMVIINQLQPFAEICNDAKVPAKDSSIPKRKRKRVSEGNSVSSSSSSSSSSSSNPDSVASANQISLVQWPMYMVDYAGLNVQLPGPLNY

[6] = tested on: T6, hMusTRD1α1 (944aa, full length) (Homo sapiens); test: EMSA; conditions: protein translated in vitro, protein details: myc/his (pcDNA3.1myc/his), label: 32P
T6 sequence (looked up): T1 sequence (looked up, limits assumed)

[7] = tested on: T7, hMusTRD1α1 458aa (Homo sapiens); test: EMSA; conditions: protein translated in vitro, protein details: myc/his, label: 32P
T7 sequence (looked up): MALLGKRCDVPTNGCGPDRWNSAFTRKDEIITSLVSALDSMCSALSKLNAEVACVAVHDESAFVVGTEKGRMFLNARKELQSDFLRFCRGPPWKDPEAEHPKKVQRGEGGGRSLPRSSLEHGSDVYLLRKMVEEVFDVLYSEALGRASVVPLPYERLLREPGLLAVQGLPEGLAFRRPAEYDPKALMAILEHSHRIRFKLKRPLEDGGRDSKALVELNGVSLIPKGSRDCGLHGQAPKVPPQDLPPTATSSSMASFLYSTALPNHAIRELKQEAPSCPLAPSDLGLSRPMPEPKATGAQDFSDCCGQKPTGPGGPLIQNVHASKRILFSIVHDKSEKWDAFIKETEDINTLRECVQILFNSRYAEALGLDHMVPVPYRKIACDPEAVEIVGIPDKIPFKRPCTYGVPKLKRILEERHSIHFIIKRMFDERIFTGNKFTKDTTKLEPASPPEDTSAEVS

[8] = tested on: T8, ΔhMusTRD1α1 (yeast) (Homo sapiens); test: one hybrid; conditions: protein in cells; variant of USE-B1 tandem repeats (yeast reporter); only the site is given
T8 sequence (looked up): T7 sequence (looked up)

[9] = tested on: MusTRD-containing complexes, mouse soleus and EDL nuclear extract (Mus musculus); test: EMSA; conditions: protein in an extract

AGCCACAGGATTAACATA (double strand) [USE-B1 tandem repeats (yeast reporter)]
binding result [1]: binds

AGCCACAGGATTAACATAAGCCACAGGATTAACATAAGCCACAGGATTAACATA (double strand) [(B1)3x, TnIslow USE]
binding result [2]: no binding
binding result [3]: binds
binding result ([4]; most avid of the deletions): binds
binding result ([5]; DBD2 in 544-944): binds
binding result ([6]; blocked by anti-MusTRD 1-20aa antibody, poly(dI-dC), RT): binds
binding result ([7]; DBD1 in 351-458): binds

AGCCACAGGATATCCATA (double strand) [USE-B1b tandem repeats (yeast reporter)]
binding result [8]: no binding
binding result ([1]; variant of USE-B1 tandem repeats (yeast reporter)): no binding

AGCCACAGGATTAACATA (double strand) [USE-B1]
binding result ([9]; nuclear extracts of soleus and EDL): binds

AGCCACAGGATATCCATAAGCCACAGGATATCCATAAGCCACAGGATATCCATA (double strand) [(B1b)3x]
binding result ([3]; variant of (B1)3x, TnIslow USE): no binding
binding result ([4]; variant of (B1)3x, TnIslow USE): no binding
binding result ([5]; variant of (B1)3x, TnIslow USE): no binding
binding result ([6]; variant of (B1)3x, TnIslow USE): no binding
binding result ([7]; variant of (B1)3x, TnIslow USE): no binding

AGCCACAGGATATCCATA (double strand) [USE-B1b]
binding result ([9]; variant of USE-B1): no binding
